## Primary screen of a compound library

Mtb heat-shock: 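Assay on Mycobacterium tuberculosis, filed only as a heat shock assay from Cornell; the read-out is not stated. The concentration is filed as 10 mM, unlikely as a test dose, so the dose is not known. Direction is inferred from retests: higher values go with stronger inhibition. Of about 69,000 compounds tested this way, about 930 (1.4%) reached 50% or more in at least one test.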
Mtb growth Cornell: 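Whole-cell assay for inhibitors of Mycobacterium tuberculosis growth, labelled Cornell in the record; the read-out is not stated. The concentration is filed as 10 mM, unlikely as a test dose, so the dose is not known. The record gives no direction; compounds strong in two other growth screens of this library score well above the rest, so higher reads as stronger inhibition. Size under these conditions: about 53,000 compounds, about 900 of them at 50% or above in at least one test.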

Each number is a percent effect as filed.
How 0% and 100% were set is not recorded. Most values in the screen are low, and negative values occur.
The compounds are a random part of those screened.

N#Cc1ccc(CSCCN2CCOCC2)cc1 gave Mtb heat-shock: -6.016%. With CSc1ncc(Cl)c(C(=O)NC(Cc2ccccc2)C(=O)O)n1 (stereo not given) the screen gave Mtb heat-shock: -8.69%; Mtb growth Cornell: -29.45%. OC1(CNc2ccc(F)cc2)CCNCC1 read Mtb heat-shock: -11.81%; Mtb growth Cornell: -23.26%. COc1c(C)cnc(CN2CCCC(c3noc(C4CC4)n3)C2)c1C (stereo not given) gave Mtb heat-shock: -14.11%; Mtb growth Cornell: -12.77%.

COCCn1c(C(=O)NCc2n[nH]c(C)n2)cc2ccccc21 read Mtb heat-shock: -16.48%. With Cn1cccc1C(=O)N1CCCC2(CCCN2Cc2cccnc2)C1 (stereo not given) the screen gave Mtb heat-shock: -2.299%; Mtb growth Cornell: 2.298%. CC(=O)OC1CN(c2nc3c(C(F)(F)F)cccc3s2)C1 gave Mtb heat-shock: 15.05%; Mtb growth Cornell: 5.311%. For [H][C@@]12CN(c3cc(OC)ncn3)C[C@H](C(=O)N3CCCC3)[C@]1([H])CCO2 the result was Mtb heat-shock: -28.55%; Mtb growth Cornell: -11.04%.

CN(C)CC1CN(Cc2cccc(C(=O)N(C)C)c2)CCO1 (stereo not given) read Mtb heat-shock: -10.32%; Mtb growth Cornell: 7.775%. With Cc1ccnn1CCC(=O)N(Cc1ccsc1)CC(C)C the screen gave Mtb heat-shock: -56.29%; Mtb growth Cornell: 26.71%. For [H][C@]12C[C@H](NC(=O)c3ccccn3)[C@@]1([H])CN(S(=O)(=O)c1ccc(C)cc1)C2 the result was Mtb heat-shock: -54.45%; Mtb growth Cornell: -72.49%. O=C(O)C(F)(F)F.[H][C@@]12OCCN(c3ncccn3)[C@@]1([H])CC[C@H]2OCC(=O)N1CCCC1 gave Mtb heat-shock: -18.32%; Mtb growth Cornell: 19.59%.

With Clc1cncc(N2CCCC2c2nnc3n2CCCCC3)n1 (stereo not given) the screen gave Mtb heat-shock: -7.126%; Mtb growth Cornell: -17.45%. Result for CCOCC(O)CN1CCN(C(=O)c2ccccc2F)CC1 (stereo not given) was Mtb heat-shock: -3.702%. With CC(C)CNC(=O)c1nc2c(s1)CCN(C(=O)c1cccnc1)CC2 the screen gave Mtb heat-shock: -10.91%; Mtb growth Cornell: 11.96%. For CC(C)Oc1ccc(CNC(=O)NCc2ccncc2)cc1F the result was Mtb heat-shock: -35.96%.

With CCCNC(=O)c1cc2c(s1)CCN2C(=O)c1ccccc1 the screen gave Mtb heat-shock: -14.53%; Mtb growth Cornell: -2.119%. COC(=O)c1ccc(N2CCN(CCS(C)(=O)=O)C(C)C2)cc1 (stereo not given) read Mtb heat-shock: -13.1%; Mtb growth Cornell: -6.752%. Result for COc1cccc(Cl)c1C(C(=O)O)N(C)Cc1nnc(C)o1 (stereo not given) was Mtb heat-shock: -22.75%; Mtb growth Cornell: -1.658%. Result for C[C@]1(O)CN(CCC(N)=O)CC[C@@H]1Oc1cccc(F)c1 was Mtb heat-shock: -21.01%.

CC(=O)N1CCN([C@@H]2CCC[C@@H](NC(=O)c3cccnc3)[C@H]2O)CC1 gave Mtb heat-shock: 5.419%; Mtb growth Cornell: -4.168%. Result for [H][C@]12CN(c3ncc(CC)cn3)C[C@@]1([H])S(=O)(=O)CC[C@@H]2C(=O)NC(C)C was Mtb heat-shock: -14.13%; Mtb growth Cornell: 21.84%. With OC(CN1CCN(CC2CC2)CC1)c1ccc(Br)cc1 (stereo not given) the screen gave Mtb heat-shock: 6.961%; Mtb growth Cornell: -12.26%. Result for CNC(=O)CCOC(=O)c1cccc(-n2ccc(C(F)(F)F)n2)c1 was Mtb heat-shock: -3.029%.

Result for CCOC1CC2(CCN(Cc3cccn3C)CC2)C1.O=C(O)C(F)(F)F was Mtb heat-shock: -28%; Mtb growth Cornell: 20.9%. O=C(NC[C@]1(O)CN(Cc2ccccc2F)C[C@H]1O)c1ccccn1 gave Mtb heat-shock: 5.486%. For Cc1cccc(N(CCC(N)=O)CC(=O)Nc2ccccc2)c1 the result was Mtb heat-shock: -0.3213%; Mtb growth Cornell: -17.93%. With CC(C)NC(=O)C1CN(C(=O)c2ccccc2)CC12CCOCC2 (stereo not given) the screen gave Mtb heat-shock: -9.394%; Mtb growth Cornell: 14.11%.

O=C(O)C(F)(F)F.[H][C@@]12CN(Cc3ccoc3)CCO[C@]1([H])CN(S(=O)(=O)N(C)C)C2 gave Mtb heat-shock: 20.58%; Mtb growth Cornell: -2.365%. For CN(Cc1ccc(C(=O)O)cc1)C(=O)c1sccc1OC(F)F the result was Mtb heat-shock: -24.12%. For Cc1nccn1CC1CCN(C(=O)Cc2ccccc2)CC1 the result was Mtb heat-shock: -19.98%; Mtb growth Cornell: -25.84%.

3 of the entries, repeated:

[H][C@@]12CN(c3cc(OC)ncn3)C[C@H](C(=O)N3CCCC3)[C@]1([H])CCO2 gave Mtb heat-shock: -28.55%; Mtb growth Cornell: -11.04%.
Cc1ccnn1CCC(=O)N(Cc1ccsc1)CC(C)C gave Mtb heat-shock: -56.29%; Mtb growth Cornell: 26.71%.
CSc1ncc(Cl)c(C(=O)NC(Cc2ccccc2)C(=O)O)n1 (stereo not given) gave Mtb heat-shock: -8.69%; Mtb growth Cornell: -29.45%.

From ChEMBL document CHEMBL3988442, “University of Dundee, Small-Polar-MMV Screening Library” (2021).